Results: the supplement of paper PMC12823440, “Inhibitors supercharge kinase turnover through native proteolytic circuits” (Nature, 2025)
Counter-ions that a name gives are not always drawn. The list shows a part of the results. The calls rarely recur for the same compound in another form.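 In K562 cells expressing nanoluciferase-fused kinases, luminescence was recorded at 4 h intervals between 2 and 18 h, normalized as percent of control with DMSO at 100% and a positive control at 0%. A significant (2 sigma) signal drop marks a time point as decreased. The authors' rule for a hit is not shown and takes in more than the number of time points.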

The chains behind the UniProt entries cited, without tags or fusion partners. Where a name states a change or a piece, a line headed by the entry shows the natural chain unless it says otherwise.
UniProt O75460: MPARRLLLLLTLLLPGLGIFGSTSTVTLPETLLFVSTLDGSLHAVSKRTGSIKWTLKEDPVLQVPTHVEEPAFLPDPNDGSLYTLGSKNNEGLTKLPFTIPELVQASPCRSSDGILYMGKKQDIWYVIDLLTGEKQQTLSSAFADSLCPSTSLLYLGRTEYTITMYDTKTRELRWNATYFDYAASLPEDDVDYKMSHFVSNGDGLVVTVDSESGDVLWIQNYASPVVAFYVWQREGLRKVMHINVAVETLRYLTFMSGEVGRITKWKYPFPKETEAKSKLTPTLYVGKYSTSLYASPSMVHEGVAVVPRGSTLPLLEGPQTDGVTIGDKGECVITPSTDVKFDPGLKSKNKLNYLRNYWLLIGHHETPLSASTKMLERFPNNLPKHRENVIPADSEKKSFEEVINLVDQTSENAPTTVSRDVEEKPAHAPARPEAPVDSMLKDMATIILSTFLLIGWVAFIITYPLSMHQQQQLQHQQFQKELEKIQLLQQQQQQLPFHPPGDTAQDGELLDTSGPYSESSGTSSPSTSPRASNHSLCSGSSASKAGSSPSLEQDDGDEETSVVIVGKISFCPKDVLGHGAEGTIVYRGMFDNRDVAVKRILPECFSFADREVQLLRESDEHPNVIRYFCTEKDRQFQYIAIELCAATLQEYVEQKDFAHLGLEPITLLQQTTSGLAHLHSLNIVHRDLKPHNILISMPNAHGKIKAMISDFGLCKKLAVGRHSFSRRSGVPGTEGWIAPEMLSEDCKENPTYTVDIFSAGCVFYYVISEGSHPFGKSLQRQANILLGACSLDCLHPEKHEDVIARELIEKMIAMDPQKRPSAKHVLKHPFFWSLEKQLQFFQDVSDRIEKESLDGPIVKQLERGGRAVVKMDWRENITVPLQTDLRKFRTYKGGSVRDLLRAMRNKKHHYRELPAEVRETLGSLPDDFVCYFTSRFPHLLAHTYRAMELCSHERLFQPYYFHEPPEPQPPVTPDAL
UniProt P11362, whole entry, looked up: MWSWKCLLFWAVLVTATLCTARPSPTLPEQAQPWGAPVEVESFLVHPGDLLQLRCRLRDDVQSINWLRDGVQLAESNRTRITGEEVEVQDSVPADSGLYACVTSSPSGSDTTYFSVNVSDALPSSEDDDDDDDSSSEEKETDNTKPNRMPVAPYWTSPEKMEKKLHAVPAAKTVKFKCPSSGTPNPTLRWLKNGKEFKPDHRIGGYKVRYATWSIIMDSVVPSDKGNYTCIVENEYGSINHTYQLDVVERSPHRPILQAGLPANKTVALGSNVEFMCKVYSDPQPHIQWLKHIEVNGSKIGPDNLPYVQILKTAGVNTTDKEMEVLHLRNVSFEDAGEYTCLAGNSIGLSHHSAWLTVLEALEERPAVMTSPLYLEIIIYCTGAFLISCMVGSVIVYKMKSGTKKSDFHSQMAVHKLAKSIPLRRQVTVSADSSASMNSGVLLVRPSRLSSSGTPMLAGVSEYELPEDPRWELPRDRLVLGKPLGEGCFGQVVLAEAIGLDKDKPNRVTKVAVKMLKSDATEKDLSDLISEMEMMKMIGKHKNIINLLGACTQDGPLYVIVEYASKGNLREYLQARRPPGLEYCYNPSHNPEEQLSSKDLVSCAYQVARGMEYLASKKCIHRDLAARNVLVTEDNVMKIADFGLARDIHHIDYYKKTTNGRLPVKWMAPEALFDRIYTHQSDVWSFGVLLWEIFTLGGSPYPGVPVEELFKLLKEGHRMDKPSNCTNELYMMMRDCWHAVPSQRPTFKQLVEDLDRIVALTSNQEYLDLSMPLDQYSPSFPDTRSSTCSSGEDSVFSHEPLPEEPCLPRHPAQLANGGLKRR
UniProt P22607, whole entry, looked up: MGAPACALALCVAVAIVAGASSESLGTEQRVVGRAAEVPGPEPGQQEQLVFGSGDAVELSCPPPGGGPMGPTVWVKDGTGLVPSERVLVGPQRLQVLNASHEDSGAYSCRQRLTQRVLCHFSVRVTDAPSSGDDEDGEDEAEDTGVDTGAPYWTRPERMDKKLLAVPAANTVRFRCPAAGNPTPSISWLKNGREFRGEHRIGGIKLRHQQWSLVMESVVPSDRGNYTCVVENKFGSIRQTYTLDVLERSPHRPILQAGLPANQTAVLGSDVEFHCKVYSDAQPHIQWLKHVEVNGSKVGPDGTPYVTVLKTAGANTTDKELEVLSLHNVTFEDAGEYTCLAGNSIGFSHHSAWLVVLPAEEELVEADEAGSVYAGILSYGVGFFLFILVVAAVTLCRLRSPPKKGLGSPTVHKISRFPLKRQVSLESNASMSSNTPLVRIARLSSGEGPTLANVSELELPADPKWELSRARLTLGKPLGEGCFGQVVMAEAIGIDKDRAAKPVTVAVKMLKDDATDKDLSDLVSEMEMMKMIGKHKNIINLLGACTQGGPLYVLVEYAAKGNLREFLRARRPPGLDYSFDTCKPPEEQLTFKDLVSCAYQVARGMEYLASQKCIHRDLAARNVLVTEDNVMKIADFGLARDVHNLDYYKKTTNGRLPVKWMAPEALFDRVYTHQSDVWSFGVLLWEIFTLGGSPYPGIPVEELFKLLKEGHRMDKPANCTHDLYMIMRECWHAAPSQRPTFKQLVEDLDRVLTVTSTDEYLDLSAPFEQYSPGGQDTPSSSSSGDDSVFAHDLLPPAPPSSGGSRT
UniProt P49840: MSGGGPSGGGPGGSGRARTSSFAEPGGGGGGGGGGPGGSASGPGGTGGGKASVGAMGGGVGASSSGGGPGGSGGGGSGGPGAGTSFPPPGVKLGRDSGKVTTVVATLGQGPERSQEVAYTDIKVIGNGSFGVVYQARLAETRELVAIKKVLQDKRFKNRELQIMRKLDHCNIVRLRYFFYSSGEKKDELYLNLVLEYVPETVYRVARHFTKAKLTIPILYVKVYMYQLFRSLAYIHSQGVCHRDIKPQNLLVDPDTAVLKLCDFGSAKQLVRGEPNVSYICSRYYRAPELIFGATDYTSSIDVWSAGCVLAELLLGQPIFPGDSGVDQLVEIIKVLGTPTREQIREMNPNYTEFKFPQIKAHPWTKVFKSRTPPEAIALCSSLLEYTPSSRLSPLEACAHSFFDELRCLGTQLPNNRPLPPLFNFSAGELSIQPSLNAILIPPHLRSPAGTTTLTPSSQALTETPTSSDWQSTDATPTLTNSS
UniProt P14616: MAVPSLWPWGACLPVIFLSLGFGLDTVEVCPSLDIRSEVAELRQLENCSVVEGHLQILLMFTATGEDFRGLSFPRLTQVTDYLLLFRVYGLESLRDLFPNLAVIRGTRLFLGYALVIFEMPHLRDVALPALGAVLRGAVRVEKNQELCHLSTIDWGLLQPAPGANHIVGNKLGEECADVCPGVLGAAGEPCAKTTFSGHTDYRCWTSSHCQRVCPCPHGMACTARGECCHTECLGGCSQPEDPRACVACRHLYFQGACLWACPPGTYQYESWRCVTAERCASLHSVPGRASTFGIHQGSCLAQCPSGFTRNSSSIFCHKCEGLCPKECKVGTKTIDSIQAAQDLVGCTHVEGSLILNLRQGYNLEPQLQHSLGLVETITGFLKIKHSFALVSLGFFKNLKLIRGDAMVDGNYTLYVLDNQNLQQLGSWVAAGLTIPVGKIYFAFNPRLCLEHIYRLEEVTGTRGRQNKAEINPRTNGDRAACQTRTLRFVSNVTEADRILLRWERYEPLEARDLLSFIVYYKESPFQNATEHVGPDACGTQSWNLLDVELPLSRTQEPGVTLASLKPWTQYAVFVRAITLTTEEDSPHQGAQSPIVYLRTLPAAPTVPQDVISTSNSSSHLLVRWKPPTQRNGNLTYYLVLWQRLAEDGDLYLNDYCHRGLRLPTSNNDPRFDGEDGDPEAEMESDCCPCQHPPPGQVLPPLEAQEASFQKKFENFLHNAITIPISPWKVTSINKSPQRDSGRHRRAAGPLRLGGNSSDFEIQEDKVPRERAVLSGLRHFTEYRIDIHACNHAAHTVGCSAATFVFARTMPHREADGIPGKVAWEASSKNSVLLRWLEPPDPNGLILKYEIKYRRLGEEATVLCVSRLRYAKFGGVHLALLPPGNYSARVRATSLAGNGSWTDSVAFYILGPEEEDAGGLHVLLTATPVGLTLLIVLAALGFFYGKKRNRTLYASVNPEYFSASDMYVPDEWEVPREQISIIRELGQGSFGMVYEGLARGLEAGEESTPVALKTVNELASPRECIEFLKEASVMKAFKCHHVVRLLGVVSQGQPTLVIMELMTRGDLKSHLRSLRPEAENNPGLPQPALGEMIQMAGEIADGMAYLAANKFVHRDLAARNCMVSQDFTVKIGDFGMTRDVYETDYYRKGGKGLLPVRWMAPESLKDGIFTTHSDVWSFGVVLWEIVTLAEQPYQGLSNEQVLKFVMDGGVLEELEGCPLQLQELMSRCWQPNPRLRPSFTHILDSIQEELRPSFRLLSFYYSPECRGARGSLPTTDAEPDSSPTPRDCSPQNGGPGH
UniProt Q9Y616: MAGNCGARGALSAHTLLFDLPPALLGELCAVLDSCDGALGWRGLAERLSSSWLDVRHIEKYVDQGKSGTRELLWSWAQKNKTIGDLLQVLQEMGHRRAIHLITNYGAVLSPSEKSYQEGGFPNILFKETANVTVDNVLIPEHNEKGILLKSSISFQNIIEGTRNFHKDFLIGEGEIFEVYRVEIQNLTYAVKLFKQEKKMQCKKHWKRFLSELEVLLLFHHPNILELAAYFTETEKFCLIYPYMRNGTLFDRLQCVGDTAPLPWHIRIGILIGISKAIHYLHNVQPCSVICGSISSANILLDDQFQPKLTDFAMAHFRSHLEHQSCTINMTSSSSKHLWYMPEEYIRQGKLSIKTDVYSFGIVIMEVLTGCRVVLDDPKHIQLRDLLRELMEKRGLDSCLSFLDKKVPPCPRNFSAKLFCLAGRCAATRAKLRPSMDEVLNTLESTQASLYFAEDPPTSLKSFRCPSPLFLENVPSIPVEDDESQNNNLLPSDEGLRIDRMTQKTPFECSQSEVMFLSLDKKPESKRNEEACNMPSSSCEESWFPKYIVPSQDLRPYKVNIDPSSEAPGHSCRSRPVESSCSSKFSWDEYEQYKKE
UniProt P53667: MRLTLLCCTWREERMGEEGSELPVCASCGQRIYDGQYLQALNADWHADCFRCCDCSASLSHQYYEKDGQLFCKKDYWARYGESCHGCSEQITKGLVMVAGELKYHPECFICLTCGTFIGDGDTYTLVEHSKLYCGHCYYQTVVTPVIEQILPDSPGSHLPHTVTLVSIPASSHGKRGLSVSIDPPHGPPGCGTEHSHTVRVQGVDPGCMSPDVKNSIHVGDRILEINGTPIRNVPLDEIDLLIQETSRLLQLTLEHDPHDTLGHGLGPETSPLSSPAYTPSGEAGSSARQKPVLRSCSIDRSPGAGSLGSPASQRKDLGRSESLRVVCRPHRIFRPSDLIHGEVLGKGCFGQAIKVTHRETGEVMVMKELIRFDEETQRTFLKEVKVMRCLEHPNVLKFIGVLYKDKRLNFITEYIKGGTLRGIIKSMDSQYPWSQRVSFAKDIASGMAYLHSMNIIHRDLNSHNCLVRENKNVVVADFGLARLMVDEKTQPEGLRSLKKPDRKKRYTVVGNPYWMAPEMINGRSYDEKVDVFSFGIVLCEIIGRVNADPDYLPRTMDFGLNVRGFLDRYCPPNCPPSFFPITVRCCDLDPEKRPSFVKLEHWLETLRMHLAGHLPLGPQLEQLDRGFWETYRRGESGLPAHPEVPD
UniProt P53671: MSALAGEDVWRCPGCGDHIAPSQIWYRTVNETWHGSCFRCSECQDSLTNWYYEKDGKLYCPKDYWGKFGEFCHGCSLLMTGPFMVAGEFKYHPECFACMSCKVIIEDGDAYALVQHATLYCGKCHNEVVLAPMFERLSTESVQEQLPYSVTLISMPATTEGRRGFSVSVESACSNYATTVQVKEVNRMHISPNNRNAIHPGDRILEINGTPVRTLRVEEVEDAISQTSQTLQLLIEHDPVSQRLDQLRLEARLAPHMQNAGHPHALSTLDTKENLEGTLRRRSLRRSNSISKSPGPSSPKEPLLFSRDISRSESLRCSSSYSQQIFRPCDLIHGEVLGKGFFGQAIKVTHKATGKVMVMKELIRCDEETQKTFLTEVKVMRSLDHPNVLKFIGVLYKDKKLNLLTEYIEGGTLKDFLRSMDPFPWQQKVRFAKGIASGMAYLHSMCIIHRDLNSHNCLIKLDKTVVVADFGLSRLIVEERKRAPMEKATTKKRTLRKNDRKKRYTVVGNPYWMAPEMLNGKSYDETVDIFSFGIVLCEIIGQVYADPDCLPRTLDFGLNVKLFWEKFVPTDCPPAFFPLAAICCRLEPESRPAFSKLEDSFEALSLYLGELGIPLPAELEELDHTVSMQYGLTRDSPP

What was measured:
Assay in all cases: kinase-Nluc reporter destabilization hit call (1 = scored as downregulated) (binary); higher = compound decreases kinase abundance
Settings in all cases: K562, 2-18 h
ERN1 = ERN1 (UniProt O75460)
FGFR1 = FGFR1 (UniProt P11362)
FGFR2 = FGFR2 (UniProt P21802)
FGFR3 = FGFR3 (UniProt P22607)
FGR = FGR (UniProt P09769)
FLT3 = FLT3 (UniProt P36888)
FYN = FYN (UniProt P06241)
GSK3A = GSK3A (UniProt P49840)
HER2 = HER2 (UniProt P04626)
INSRR = INSRR (UniProt P14616)
IRAK3 = IRAK3 (UniProt Q9Y616)
JAK1 = JAK1 (UniProt P23458)
LCK = LCK (UniProt P06239)
LIMK1 = LIMK1 (UniProt P53667)
LIMK2 = LIMK2 (UniProt P53671)
LMTK2 = LMTK2 (UniProt Q8IWU2)
LYN = LYN (UniProt P07948)
MAP2K1 = MAP2K1 (UniProt Q02750)
MAP2K2 = MAP2K2 (UniProt P36507)
MAP4K2 = MAP4K2 (UniProt Q12851)

SMILES | kinase-Nluc reporter destabilization hit call (ERN1; 2.5 µM) | kinase-Nluc reporter destabilization hit call (FGFR1; 2.5 µM) | kinase-Nluc reporter destabilization hit call (FGFR2; 2.5 µM) | kinase-Nluc reporter destabilization hit call (FGFR3; 2.5 µM) | kinase-Nluc reporter destabilization hit call (FGR; 2.5 µM) | kinase-Nluc reporter destabilization hit call (FLT3; 2.5 µM) | kinase-Nluc reporter destabilization hit call (FYN; 2.5 µM) | kinase-Nluc reporter destabilization hit call (GSK3A; 2.5 µM) | kinase-Nluc reporter destabilization hit call (HER2; 2.5 µM) | kinase-Nluc reporter destabilization hit call (INSRR; 2.5 µM) | kinase-Nluc reporter destabilization hit call (IRAK3; 2.5 µM) | kinase-Nluc reporter destabilization hit call (JAK1; 2.5 µM) | kinase-Nluc reporter destabilization hit call (LCK; 2.5 µM) | kinase-Nluc reporter destabilization hit call (LIMK1; 2.5 µM) | kinase-Nluc reporter destabilization hit call (LIMK2; 2.5 µM) | kinase-Nluc reporter destabilization hit call (LMTK2; 2.5 µM) | kinase-Nluc reporter destabilization hit call (LYN; 2.5 µM) | kinase-Nluc reporter destabilization hit call (MAP2K1; 2.5 µM) | kinase-Nluc reporter destabilization hit call (MAP2K2; 2.5 µM) | kinase-Nluc reporter destabilization hit call (MAP4K2; 2.5 µM) | kinase-Nluc reporter destabilization hit call (ERN1; 10 µM) | kinase-Nluc reporter destabilization hit call (FGFR1; 10 µM) | kinase-Nluc reporter destabilization hit call (FGFR2; 10 µM) | kinase-Nluc reporter destabilization hit call (FGFR3; 10 µM) | kinase-Nluc reporter destabilization hit call (FGR; 10 µM) | kinase-Nluc reporter destabilization hit call (FLT3; 10 µM) | kinase-Nluc reporter destabilization hit call (FYN; 10 µM) | kinase-Nluc reporter destabilization hit call (GSK3A; 10 µM) | kinase-Nluc reporter destabilization hit call (HER2; 10 µM) | kinase-Nluc reporter destabilization hit call (INSRR; 10 µM) | kinase-Nluc reporter destabilization hit call (IRAK3; 10 µM) | kinase-Nluc reporter destabilization hit call (JAK1; 10 µM) | kinase-Nluc reporter destabilization hit call (LCK; 10 µM) | kinase-Nluc reporter destabilization hit call (LIMK1; 10 µM) | kinase-Nluc reporter destabilization hit call (LIMK2; 10 µM) | kinase-Nluc reporter destabilization hit call (LMTK2; 10 µM) | kinase-Nluc reporter destabilization hit call (LYN; 10 µM) | kinase-Nluc reporter destabilization hit call (MAP2K1; 10 µM) | kinase-Nluc reporter destabilization hit call (MAP2K2; 10 µM) | kinase-Nluc reporter destabilization hit call (MAP4K2; 10 µM)
CN(C)C/C=C/C(=O)Nc1cc2c(Nc3ccc(F)c(Cl)c3)ncnc2cc1O[C@H]1CCOC1 [Afatinib (dimaleate)] | inactive: 0 | inactive: 0 | inactive: 0 | inactive: 0 | inactive: 0 | inactive: 0 | inactive: 0 | inactive: 0 | active: 1 | inactive: 0 | inactive: 0 | inactive: 0 | inactive: 0 | inactive: 0 | inactive: 0 | inactive: 0 | inactive: 0 | inactive: 0 | inactive: 0 | inactive: 0 | – | – | – | – | – | – | – | – | – | – | – | – | – | – | – | – | – | – | – | –
COC(=O)[C@H](CC(C)C)NC(=O)c1ccc(NC[C@@H](N)CS)cc1-c1cccc2ccccc12 | – | – | – | – | – | – | – | – | – | – | – | – | – | – | – | – | – | – | – | – | inactive: 0 | inactive: 0 | inactive: 0 | inactive: 0 | inactive: 0 | inactive: 0 | inactive: 0 | inactive: 0 | inactive: 0 | inactive: 0 | inactive: 0 | inactive: 0 | inactive: 0 | inactive: 0 | inactive: 0 | inactive: 0 | inactive: 0 | inactive: 0 | inactive: 0 | inactive: 0
COc1cc2c(-c3cnn4cc(N5CCC(N6CCN(C)CC6)CC5)cnc34)ccnc2cc1F [ALK2-IN-4 (succinate)] | – | – | – | – | – | – | – | – | – | – | – | – | – | – | – | – | – | – | – | – | inactive: 0 | inactive: 0 | inactive: 0 | inactive: 0 | inactive: 0 | inactive: 0 | inactive: 0 | inactive: 0 | inactive: 0 | inactive: 0 | inactive: 0 | inactive: 0 | inactive: 0 | inactive: 0 | inactive: 0 | inactive: 0 | inactive: 0 | inactive: 0 | inactive: 0 | inactive: 0
Cn1ncc(Cl)c1-c1cc(C(=O)N[C@H](CN)Cc2cccc(F)c2)sc1Cl [Afuresertib] | – | – | – | – | – | – | – | – | – | – | – | – | – | – | – | – | – | – | – | – | inactive: 0 | inactive: 0 | inactive: 0 | inactive: 0 | inactive: 0 | inactive: 0 | inactive: 0 | inactive: 0 | inactive: 0 | inactive: 0 | inactive: 0 | inactive: 0 | inactive: 0 | inactive: 0 | inactive: 0 | inactive: 0 | inactive: 0 | inactive: 0 | inactive: 0 | inactive: 0
C#Cc1cccc(Nc2ncnc3cc4c(cc23)OCCOCCOCCO4)c1 [Icotinib] | – | – | – | – | – | – | – | – | – | – | – | – | – | – | – | – | – | – | – | – | inactive: 0 | inactive: 0 | inactive: 0 | inactive: 0 | inactive: 0 | inactive: 0 | inactive: 0 | inactive: 0 | inactive: 0 | inactive: 0 | inactive: 0 | inactive: 0 | inactive: 0 | inactive: 0 | inactive: 0 | inactive: 0 | inactive: 0 | inactive: 0 | inactive: 0 | inactive: 0
C[C@@H](N)c1ccc(C(=O)Nc2ccnc3[nH]ccc23)cc1 | – | – | – | – | – | – | – | – | – | – | – | – | – | – | – | – | – | – | – | – | inactive: 0 | inactive: 0 | inactive: 0 | inactive: 0 | inactive: 0 | inactive: 0 | inactive: 0 | inactive: 0 | inactive: 0 | inactive: 0 | inactive: 0 | inactive: 0 | inactive: 0 | inactive: 0 | inactive: 0 | inactive: 0 | inactive: 0 | inactive: 0 | inactive: 0 | inactive: 0
C=CC(=O)Nc1cc(Nc2nccc(-c3cn(C)c4ccccc34)n2)c(OC)cc1N(C)CCN(C)C [Osimertinib (dimesylate)] | inactive: 0 | inactive: 0 | inactive: 0 | inactive: 0 | inactive: 0 | inactive: 0 | inactive: 0 | inactive: 0 | active: 1 | inactive: 0 | inactive: 0 | inactive: 0 | inactive: 0 | inactive: 0 | inactive: 0 | inactive: 0 | inactive: 0 | inactive: 0 | inactive: 0 | inactive: 0 | – | – | – | – | – | – | – | – | – | – | – | – | – | – | – | – | – | – | – | –
N=C(N)NC(=O)c1nc(Cl)c(N)nc1N [Amiloride (hydrochloride)] | – | – | – | – | – | – | – | – | – | – | – | – | – | – | – | – | – | – | – | – | inactive: 0 | inactive: 0 | inactive: 0 | inactive: 0 | inactive: 0 | inactive: 0 | inactive: 0 | inactive: 0 | inactive: 0 | inactive: 0 | inactive: 0 | inactive: 0 | inactive: 0 | inactive: 0 | inactive: 0 | inactive: 0 | inactive: 0 | inactive: 0 | inactive: 0 | inactive: 0
CN(C)C(=O)c1cc2cnc(Nc3ccc(N4CCNCC4)cn3)nc2n1C1CCCC1 [Ribociclib succinate hydrate] | inactive: 0 | inactive: 0 | inactive: 0 | inactive: 0 | inactive: 0 | inactive: 0 | inactive: 0 | inactive: 0 | inactive: 0 | inactive: 0 | inactive: 0 | inactive: 0 | inactive: 0 | inactive: 0 | inactive: 0 | inactive: 0 | inactive: 0 | inactive: 0 | inactive: 0 | inactive: 0 | – | – | – | – | – | – | – | – | – | – | – | – | – | – | – | – | – | – | – | –

One compound at a time (already shown). Order of values: kinase-Nluc reporter destabilization hit call (ERN1; 2.5 µM)	kinase-Nluc reporter destabilization hit call (FGFR1; 2.5 µM)	kinase-Nluc reporter destabilization hit call (FGFR2; 2.5 µM)	kinase-Nluc reporter destabilization hit call (FGFR3; 2.5 µM)	kinase-Nluc reporter destabilization hit call (FGR; 2.5 µM)	kinase-Nluc reporter destabilization hit call (FLT3; 2.5 µM)	kinase-Nluc reporter destabilization hit call (FYN; 2.5 µM)	kinase-Nluc reporter destabilization hit call (GSK3A; 2.5 µM)	kinase-Nluc reporter destabilization hit call (HER2; 2.5 µM)	kinase-Nluc reporter destabilization hit call (INSRR; 2.5 µM)	kinase-Nluc reporter destabilization hit call (IRAK3; 2.5 µM)	kinase-Nluc reporter destabilization hit call (JAK1; 2.5 µM)	kinase-Nluc reporter destabilization hit call (LCK; 2.5 µM)	kinase-Nluc reporter destabilization hit call (LIMK1; 2.5 µM)	kinase-Nluc reporter destabilization hit call (LIMK2; 2.5 µM)	kinase-Nluc reporter destabilization hit call (LMTK2; 2.5 µM)	kinase-Nluc reporter destabilization hit call (LYN; 2.5 µM)	kinase-Nluc reporter destabilization hit call (MAP2K1; 2.5 µM)	kinase-Nluc reporter destabilization hit call (MAP2K2; 2.5 µM)	kinase-Nluc reporter destabilization hit call (MAP4K2; 2.5 µM)	kinase-Nluc reporter destabilization hit call (ERN1; 10 µM)	kinase-Nluc reporter destabilization hit call (FGFR1; 10 µM)	kinase-Nluc reporter destabilization hit call (FGFR2; 10 µM)	kinase-Nluc reporter destabilization hit call (FGFR3; 10 µM)	kinase-Nluc reporter destabilization hit call (FGR; 10 µM)	kinase-Nluc reporter destabilization hit call (FLT3; 10 µM)	kinase-Nluc reporter destabilization hit call (FYN; 10 µM)	kinase-Nluc reporter destabilization hit call (GSK3A; 10 µM)	kinase-Nluc reporter destabilization hit call (HER2; 10 µM)	kinase-Nluc reporter destabilization hit call (INSRR; 10 µM)	kinase-Nluc reporter destabilization hit call (IRAK3; 10 µM)	kinase-Nluc reporter destabilization hit call (JAK1; 10 µM)	kinase-Nluc reporter destabilization hit call (LCK; 10 µM)	kinase-Nluc reporter destabilization hit call (LIMK1; 10 µM)	kinase-Nluc reporter destabilization hit call (LIMK2; 10 µM)	kinase-Nluc reporter destabilization hit call (LMTK2; 10 µM)	kinase-Nluc reporter destabilization hit call (LYN; 10 µM)	kinase-Nluc reporter destabilization hit call (MAP2K1; 10 µM)	kinase-Nluc reporter destabilization hit call (MAP2K2; 10 µM)	kinase-Nluc reporter destabilization hit call (MAP4K2; 10 µM)
`Cn1ncc(Cl)c1-c1cc(C(=O)N[C@H](CN)Cc2cccc(F)c2)sc1Cl` [Afuresertib] is entered as –	–	–	–	–	–	–	–	–	–	–	–	–	–	–	–	–	–	–	–	inactive: 0	inactive: 0	inactive: 0	inactive: 0	inactive: 0	inactive: 0	inactive: 0	inactive: 0	inactive: 0	inactive: 0	inactive: 0	inactive: 0	inactive: 0	inactive: 0	inactive: 0	inactive: 0	inactive: 0	inactive: 0	inactive: 0	inactive: 0
`C[C@@H](N)c1ccc(C(=O)Nc2ccnc3[nH]ccc23)cc1` is entered as –	–	–	–	–	–	–	–	–	–	–	–	–	–	–	–	–	–	–	–	inactive: 0	inactive: 0	inactive: 0	inactive: 0	inactive: 0	inactive: 0	inactive: 0	inactive: 0	inactive: 0	inactive: 0	inactive: 0	inactive: 0	inactive: 0	inactive: 0	inactive: 0	inactive: 0	inactive: 0	inactive: 0	inactive: 0	inactive: 0
